# Screening data, single-dose tests

Chains of the proteins cited; added tags and fusions are not shown.
UniProt P9WPC5, whole entry: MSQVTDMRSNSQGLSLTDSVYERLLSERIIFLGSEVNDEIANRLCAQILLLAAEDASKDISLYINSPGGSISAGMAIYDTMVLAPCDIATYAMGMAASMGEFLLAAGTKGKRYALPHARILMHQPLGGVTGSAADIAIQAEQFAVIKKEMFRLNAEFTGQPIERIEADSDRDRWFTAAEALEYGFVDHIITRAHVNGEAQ
UniProt P9WPC3, whole entry partner: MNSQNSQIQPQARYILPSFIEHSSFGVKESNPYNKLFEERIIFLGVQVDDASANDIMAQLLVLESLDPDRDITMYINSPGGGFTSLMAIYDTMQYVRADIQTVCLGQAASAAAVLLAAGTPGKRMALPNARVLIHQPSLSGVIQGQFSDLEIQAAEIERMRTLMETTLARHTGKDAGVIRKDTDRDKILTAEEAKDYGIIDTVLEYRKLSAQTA

From ChEMBL document CHEMBL3988442, “University of Dundee, Small-Polar-MMV Screening Library” (2021).

The filed quantity is “Percent Effect” (%).
How 0% and 100% were set is not recorded. Most values in the screen are low, and negative values occur.
Compounds were drawn at random from those tested, without regard to their results.

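Protease assay of ClpP1P2, read by the AMC dye that it sets free. Target: ClpP1P2, Mycobacterium tuberculosis (UniProt P9WPC5 and UniProt P9WPC3). Concentration: 50 µM. Direction is inferred from only a few compounds that gave an IC50; most scored high, so higher reads as stronger inhibition. Most other retested compounds had strongly negative values. Of about 69,000 compounds tested this way, about 10 (0.015%) reached 50% or more in at least one test.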

compound,Percent Effect
NC(=O)COc1cccc(Cn2cccn2)c1,2.261
COc1cccc(COCC(=O)N2CCN(S(C)(=O)=O)CC2)c1,-21.05
Cc1ccoc1-c1nnc(CNCC2CCCN2c2cccnn2)o1 (configuration not stated),-0.4695
O=C(c1nc(Cc2c[nH]c3ccccc23)no1)N1CCCC1,-7.098
Oc1cc(C2CCCN(Cc3cccs3)C2)nc(-c2ccccn2)n1 (configuration not stated),-21.87
CN1CCc2nc3cc(C(=O)NCc4cccs4)ccc3c(=O)n2CC1,-21.62
CN(C)c1nccc(CNS(=O)(=O)c2cc(Cl)cc(Cl)c2)n1,8.583
Cc1n[nH]c(C2CN(C(=O)c3cc(C)sc3C)CCO2)n1 (configuration not stated),3.527
Cc1nc(CN2CCC3(CCCN(Cc4ccncc4)C3)C2=O)cs1 (configuration not stated),-1.422
Cc1cc2cccc(C(=O)N3CCOC4(CNCCOC4)C3)c2o1 (configuration not stated),15.81
Cc1ccc(C(=O)N2CCC3(CC2)NC(=O)CC3c2ccccc2)cn1 (configuration not stated),5.509
O=C(CCn1c(C(F)F)cc2cccnc21)NC1CCCC1,-10.53
CN1CCC(CCc2ccnc(Nc3cnccn3)c2)CC1,-20.04
O=C(NCC1CC1)Nc1cccc(N2CCN(CC3CC3)CC2)c1,-3.232
CN(C)C(=O)CN1CCC2(CC1)CC(=O)c1ccc3ccccc3c1O2,-504.4
COc1ccc(CNC2CCN(c3ccccc3)C2)c(OC)c1OC (configuration not stated),0.5774
CCn1ncc(CN2C[C@@H]3CCCN3C[C@@H]2CCSC)c1C,1.054
Cc1cnn(CC2CCCN2C(=O)c2cccc(-n3cnnn3)c2)c1 (configuration not stated),-9.694
COc1cc2nc(NCc3cc(C)on3)nc(N)c2cc1OC,-1.5
COC(=O)CCC(=O)N1CCCC2(CCCN2Cc2cccc(F)c2)C1 (configuration not stated),-9.715
COc1cc(F)ccc1NC(=O)NCCNC(=O)OC(C)(C)C,8.887
CCS(=O)(=O)N1CCC2(CN(Cc3ccc(C)o3)C2)C1,-5.171
O=C(c1ccoc1)N1CCCn2nnc(COCC3CC3)c2C1,1.961
Cc1nn(C)c2c(NCc3ccccc3F)nc(C3CC3)nc12,-4.634
O=C1CCCN1Cc1ncn2c1CN(C(=O)Cc1cccs1)CCC2,-8.584
Cn1cc(C(=O)N2CCCC(CN3CCCC3=O)C2)cn1 (configuration not stated),-0.3119
Cc1ncc2c(c1CNC(=O)C1(C)CCCCO1)CCNC2 (configuration not stated),4.823
O=C(NC1CCN(CC2CC2)C1)c1ccc(N2CCC(O)CC2)cc1 (configuration not stated),0.9369
N#Cc1cc(F)c(NCCc2cccnc2)c(F)c1,-1.307
COCCN(C)C[C@@H]1CN(C(=O)c2ccc3c(c2)OCO3)C[C@@H]1CO,14.99
COCCNC(=O)Cn1cc(NC(=O)c2cccc(Cl)c2Cl)cn1,-6.108
COc1c(C2CCCN2C(=O)c2sc(C)nc2C)c(C)nn1C (configuration not stated),16.25
Cc1nc(N2CCCN(C(=O)c3ccsc3)CC2)c2cnn(C)c2n1,2.935
Cc1cccc(C(C)(C)CNC(=O)CN(C)S(=O)(=O)c2cccnc2)c1,2.577
COc1c(C)cnc(CN2CCCC(Cn3nc(C)nc3C)C2)c1C (configuration not stated),-9.686
CCC[C@@H]1CN(S(=O)(=O)c2ccc(OC)c(OC)c2)C[C@H]1NC(C)=O,-6.802
CCn1ncc(-c2cc(C(F)F)n3nc(CCC(=O)O)nc3n2)c1C,6.763
Cc1cc(C(=O)N2CCC(c3nnc(Cn4ccnc4)n3C)CC2)cs1,20.6
Cn1cnnc1C1CCCN(C(=O)COc2ccccc2Cl)C1 (configuration not stated),-26.13
Cc1ccc(CN(C)C(=O)c2cccc(NC(N)=O)c2)o1,9.115
COCCCNS(=O)(=O)c1cccc(CSC)c1,0.2626
CCn1cnnc1C1CCN(C(=O)c2cccc(OC)c2OC)CC1,1.964
CCCNC(=O)c1ccc(-c2ccco2)[nH]c1=O,-154.8
CC(c1nc(C2CC2)no1)N(C)Cc1ccc2c(c1)OCCO2 (configuration not stated),-1.396
O=C1CCC(C(=O)N2CCOC(Cc3ccc(F)cc3)C2)=NN1 (configuration not stated),-7.319
Fc1ccccc1CN1C[C@@H]2CN(Cc3cccnc3)CCO[C@@H]2C1,2.488
CCCc1cc(N2CCC(NC3CCOCC3)CC2)nc(C)n1,-19.85
CCn1nc2c(cc1=O)CN(CC(=O)Nc1nnc(C)s1)CC2,-8.21
O=C(NCCc1ccsc1)c1ccoc1,9.04
Cc1ncsc1-c1nnc(C2CCCN2C(=O)Cn2cccn2)o1 (configuration not stated),3.652
CN1CCN(Cc2ccc(-c3ccc(C(N)=O)cc3)nc2)CC1,0.9101
Cc1cccc(CN2C(=O)CCC23CCN(C(=O)c2ccco2)CC3)n1,1.734
O=C(NCc1ccccc1)NCC(O)c1cccc(F)c1 (configuration not stated),-11.86
O=S(=O)(Nc1ncccc1F)c1cc(Cl)cc2c1OCC2,-6.585
CC(O)CNCc1c[nH]nc1-c1cc2ccccc2o1 (configuration not stated),12.94
O=C(CCSc1ccccc1F)N1CCN(c2cnccn2)CC1,-13.57
CC(O)c1cccc(-n2c(CCC(=O)O)nc3ccccc32)c1 (configuration not stated),2.072
Cc1cc(NC(=O)Cn2ncc(SCC(N)=O)c(Cl)c2=O)ccc1Br,-0.2997
Cc1cnc(N2CCc3c(c(COc4cncnc4)nn3C)C2)nc1,-3.84
O=C(NCCN1CCOCC1)N(CCCO)C1CCCc2ccccc21 (configuration not stated),10.28
Cc1cc(C)nc(N(C)CCn2ccnc2C)n1,6.147
COc1ccc(C)cc1S(=O)(=O)NCC(c1cccn1C)N(C)C (configuration not stated),-3.511
CCc1nc(C2CCCN2C(=O)Cc2cccs2)no1 (configuration not stated),-13.05
O=C(NCCCN1CCc2ccccc2C1)c1ccccc1Cl,-29.78
CN(C)C(=O)CN1CCC2(CC1)CN(S(C)(=O)=O)Cc1ccccc1O2,-15.41
O=C(NCC(O)c1ccsc1)c1sccc1OC(F)F (configuration not stated),-7.777
CCN1CCCC(CN2CCn3nc(CNC(=O)N(C)C)cc3C2)C1 (configuration not stated),-13.21
CCOCC1CN(C(=O)c2cccc(C)n2)Cc2cnn(C)c21 (configuration not stated),-12.44
O=C(NCC(=O)N1CCCc2ccccc21)c1c(O)cc(F)cc1F,-2.742
Nc1nccc(N2C[C@@H](CN3CCCCC3)[C@@H](CO)C2)n1,-6.391
CCc1cnc(NCCCN2CCC(O)CC2)nc1,5.197
Cc1cc(C2CCCN2Cc2ccn(C)c(=O)c2)on1 (configuration not stated),-12.2
CS(=O)(=O)NCCC1CCCCN1C(=O)NCc1ccccn1 (configuration not stated),-0.1753
O=C1CCC2(CCOC2)CN1CCCOc1cccnc1 (configuration not stated),-12.02
CC(C)Oc1ncccc1CNC(=O)N1CCC1,-0.6753
O=C(NCc1cccnc1-n1cncn1)c1cncc(Br)c1,-4.764
Cc1ccccc1CNC(=O)N1CC[C@@H]2CN(C)S(=O)(=O)[C@@H]2CC1,-8.128
CN(C)C(CNCc1nc(-c2ccsc2)no1)c1ccsc1 (configuration not stated),1.246
CCc1nc(CN(C)C2CCN(CCc3cccs3)C2)no1 (configuration not stated),-11.57
CCc1cc(NC2CCS(=O)(=O)CC2)nc(N2CCCCC2)n1,5.416
CCOCCN1CCc2cncnc2C1,7.625
Cc1nc(C)n(CC2CCCN(CCC(=O)Nc3cc(C)on3)C2)n1 (configuration not stated),-15.15

Repeated from the top, 5 entries:

* NC(=O)COc1cccc(Cn2cccn2)c1 : 2.261%
* COc1cccc(COCC(=O)N2CCN(S(C)(=O)=O)CC2)c1 : -21.05%
* Cc1ccoc1-c1nnc(CNCC2CCCN2c2cccnn2)o1 (configuration not stated) : -0.4695%
* O=C(c1nc(Cc2c[nH]c3ccccc23)no1)N1CCCC1 : -7.098%
* Oc1cc(C2CCCN(Cc3cccs3)C2)nc(-c2ccccn2)n1 (configuration not stated) : -21.87%